Patent US20240035082

Test system: Bst 2.0 DNA polymerase
Assay: BLI
Details: purified recombinant protein, label: 5' biotin on template

Row | Sequence | binding result (cognate dNTP, 150 mM NaCl, Mg-free, 5/6 bases called) | binding result (noncognate dNTP, simple exponential binding, affinity falls with added NaCl)
1 | GGCAAATCACCAGAAGGCGGTTCCTGAATGAATGGGAAGCCTTCAAGAAGGTGATAAGCAGGAGAAACATACGAAGGCGCATAACGATACCACTGACCCTC / GAGGGTCAGTGGTATCGTTATG [phiX_matchC/FP2 primer-template] | binds | –
2 | GGCAAATCACCAGAAGGCGGTTCCTGAATGAATGGGAAGCCTTCAAGAAGGTGATAAGCAGGAGAAACATACGAAGCATCATAACGATACCACTGACCCTC / GAGGGTCAGTGGTATCGTTATG [phiX_matchA/FP2 primer-template] | – | binds more weakly

Construct, isoform or probe ends are uncertain for at least one entry. Weaker means in comparison with the reference protein, sequence or condition of that experiment.
